# Source: the supplement of paper PMC3334620
# In all, about 33,000 sequences were measured (“E-score (-0.5 to 0.5)”: median about -0.016, highest 2% from about 0.3 on). Some of the results follow.
# Molecular target: T1, Yer184c (UniProt P39961)
# T1 sequence: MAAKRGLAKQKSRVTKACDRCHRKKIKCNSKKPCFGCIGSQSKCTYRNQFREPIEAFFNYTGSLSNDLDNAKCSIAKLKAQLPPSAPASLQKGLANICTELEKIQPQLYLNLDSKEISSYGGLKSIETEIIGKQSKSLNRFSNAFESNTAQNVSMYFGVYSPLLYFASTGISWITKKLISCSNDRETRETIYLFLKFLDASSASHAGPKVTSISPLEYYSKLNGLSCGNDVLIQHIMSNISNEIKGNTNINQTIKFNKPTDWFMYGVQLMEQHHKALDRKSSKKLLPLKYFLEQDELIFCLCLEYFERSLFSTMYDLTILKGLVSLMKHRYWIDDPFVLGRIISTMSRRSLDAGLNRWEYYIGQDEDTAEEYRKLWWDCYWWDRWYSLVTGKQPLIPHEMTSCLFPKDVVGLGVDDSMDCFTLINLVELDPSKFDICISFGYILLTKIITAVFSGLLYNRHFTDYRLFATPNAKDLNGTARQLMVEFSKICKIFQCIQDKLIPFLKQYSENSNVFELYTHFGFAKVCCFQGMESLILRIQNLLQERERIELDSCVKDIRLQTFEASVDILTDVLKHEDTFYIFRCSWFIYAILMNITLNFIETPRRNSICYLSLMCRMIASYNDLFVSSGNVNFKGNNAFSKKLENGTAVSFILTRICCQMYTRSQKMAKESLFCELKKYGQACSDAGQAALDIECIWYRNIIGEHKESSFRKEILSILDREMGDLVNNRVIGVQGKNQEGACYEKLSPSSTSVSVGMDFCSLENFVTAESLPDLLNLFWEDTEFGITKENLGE
# Experiment: PBM E-score (8-mer binding enrichment) (E-score (-0.5 to 0.5)); higher = stronger / more preferred TF binding
# Details: protein concentration: 100 nM; construct: GST-full length
# Method: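 Universal 'all 10-mer' protein binding microarrays (Agilent AMADID 015681) probed with GST-tagged S. cerevisiae TFs (full-length or DBD) made by in vitro transcription/translation (PURExpress), about 100-200 nM. Bound TF was detected with fluorescent anti-GST. Each ungapped 8-mer (which stands for itself and its reverse complement) is scored by the PBM enrichment score (E-score), a modified Wilcoxon-Mann-Whitney statistic from -0.5 to +0.5, computed with the Universal PBM Analysis Suite. Scale: above 0.35 generally sequence-specific binding.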
row,Sequence,PBM E-score
1,GAACCTTC,-0.00158
2,GTAAAAGA,0.0635
3,ACCAAAGT,-0.0125
4,AACCAGTG,-0.251
5,CGAAGCAG,-0.0198
6,TTCCTCAA,0.0708
7,ACAGCTGG,-0.219
8,CGTGTACA,0.0108
9,CACTTTAA,0.0546
10,CCTAGACG,-0.0921
11,CTAATTTA,0.281
12,CACTGCAG,-0.0351
13,AGATTCGC,0.0489
14,ATACCACG,0.191
15,ATGGCGTG,-0.0753
16,ACCAGCTC,-0.141
17,CGTCAACG,-0.0231
18,ACATCGCG,-0.138
19,TAAGTTAA,-0.00427
20,GATTGTGC,-0.0711
21,CCTGCCGC,-0.0625
22,TCGGTAAA,0.296

row,Sequence,PBM E-score
1,ATCCTTTG,0.0204
2,CCGCCGCG,0.172
3,ACCTTTTA,-0.102
4,GATCGGCC,0.272
5,GTATGCAC,-0.0367
6,CACTTTTC,0.0831
7,ATGCCCGG,0.237
8,AAAATCCT,0.0606
9,CCTGGATA,-0.227
10,GAGTACTC,-0.0763
11,GCAGTGTA,0.0357
12,AACACTCA,0.0828
13,AGGAGCCA,-0.154
14,TGGTGGAA,-0.00394
15,ACAGGCCG,0.0481
16,ACTGACGA,0.00463
17,AGATACTC,-0.119
18,AGTCTCCG,0.27
19,AAGGACAT,-0.00966
20,GCTGCCAC,-0.0222
21,GAAAAATA,0.221
22,CAGATGCA,-0.31

row,Sequence,PBM E-score
1,AACCACGA,-0.137
2,CATAACCC,-0.158
3,CTTGCAAA,0.192
4,GAATTGTA,0.0798
5,AGAAACAA,0.209
6,CCGTGGCG,0.0318
7,CATGGCGG,-0.0415
8,ATACAGAA,0.261
9,CCTTAAAG,-0.00178
10,AGCTGGTG,-0.0511
11,CATTTAGG,-0.143
12,GCTTCGGA,0.304
13,GATTATGA,0.148
14,CAAGTTCA,0.177
15,CCGTTCGA,0.0966
16,CGCGGCTC,0.226
17,CTGCAGAA,0.0889
18,GTGTTATA,0.239
19,CCAAAAAG,0.128
20,ACCACGGG,-0.0792
21,AATTTTAC,0.176
22,ACATTAAG,0.132

# Given with bars between the fields: part of the list above.
row | Sequence | PBM E-score
16 | ACTGACGA | 0.00463
17 | AGATACTC | -0.119
18 | AGTCTCCG | 0.27
19 | AAGGACAT | -0.00966

# Later entries

row,Sequence,PBM E-score
1,CCCGCCGA,0.193
2,ACCGGTTA,0.26
3,GTTGGGTA,-0.18
4,GGAGGCTA,-0.172
5,CCCAAGGC,-0.091
6,ATAATCGC,0.0649
7,TCCTTGAA,-0.0767
8,AGGGTTCG,-0.198
9,TATTGACA,-0.0684
10,ACGGATAT,0.339
11,CCAGGTCC,-0.182
12,CTCTCACC,0.0733
13,ACAGCCCT,-0.155
14,GTTATCTA,-0.0983
15,CGACATCG,-0.024
16,GACCAGCA,-0.157
17,AACACCGT,-0.0129
18,AATTAGCT,0.0419
19,GCCCCCCC,-0.402
20,AGCGCGAA,0.191
